The assay has as its system P388 leukemia ip, CD2F1 mice, survival T/C. In words: NCI In Vivo Anticancer Drug Screen. Data for tumor model P388 Leukemia (intraperitoneal) in CD2F1 (CDF1) mice. The note with it: T/C endpoint: median survival time, higher T/C = longer survival.
Setting [1] is: dose: 100.0 mg/kg/injection, schedule: Q01DX005 (ip), vehicle: saline with Tween-80.
[2] abbreviates: dose: 200.0 mg/kg/injection, schedule: Q01DX005 (ip), vehicle: saline with Tween-80.
Setting [3] is: dose: 240.0 mg/kg/injection, schedule: Q01DX005 (ip), vehicle: saline with Tween-80.
[4] abbreviates: dose: 240.0 mg/kg/injection, schedule: Q01DX005 (ip), vehicle: suspension in saline.
[5] abbreviates: dose: 50.0 mg/kg/injection, schedule: Q01DX005 (ip), vehicle: saline with Tween-80.
The mark [6] stands for this setting: dose: 200.0 mg/kg/injection, schedule: Q01DX009 (ip), vehicle: saline with Tween-80.

The list does not hold the whole screen: it is rich in T/C values a quarter to a half above the control, in often repeated tests (any T/C) and in doses without a T/C. Further doses and runs are listed elsewhere. T/C gives the treated animals as a percentage of the vehicle group. Some entries give survivors of the animals treated and no T/C: the source holds a T/C of zero for them, seemingly a mark for toxic or unscored doses. Some survivor counts are full or nearly so, which does not show that the dose was tolerated: the source hardly ever lists a survival T/C far under the control, and the zero likely stands for such cases as well. Counts of survivors are from the toxicity check (mostly the fifth day) where no day follows; animals may have died later. Schedules are NCI's codes, taken here to give the interval after Q, in days (D) or hours (H), and the number of doses after X. Some entries were tested several times; the results are listed from low to high. Marks such as (2×) count equal records among those shown. For survival time, this PubChem deposit counts one and a half times the control or more as active, and values a quarter to a half above the control carry no call in these data; other NCI protocols may use other cut-offs.

For `CC1OC(O[C@H]2/C=C/C=C/C=C/C=C/C=C/C=C/C=C/[C@H](C)[C@@H](O)[C@@H](C)[C@H](C)OC(=O)C[C@H](O)C[C@H](O)CC[C@@H](O)[C@H](O)C[C@H](O)C[C@]3(O)C[C@H](O)[C@@H](C(=O)O)[C@H](C2)O3)C(O)C(N)C1O` (stereo partly specified), under “dose: 16.0 mg/kg/injection, schedule: Q01DX009 (ip), vehicle: saline”, the T/C is 127 % of control. Besides, the survivor count was 2 of 6 and 3 of 6 (dose: 32.0 mg/kg/injection, schedule: Q01DX009 (ip), vehicle: saline); 0 of 6 (dose: 64.0 mg/kg/injection, schedule: Q01DX009 (ip), vehicle: saline); 0 of 6 (dose: 128.0 mg/kg/injection, schedule: Q01DX009 (ip), vehicle: saline).

In the case of `COc1c2c(c(Cc3c4c(c(OC)c5c3OCO5)OC(C)C4)c3c1OCO3)CC(C)O2` (stereo unspecified), the survivor count is, setting by setting: under setting [1], 6 of 6; under setting [2], 6 of 6.

As to `Cc1nc(N)nc(N)c1-c1ccc(N)cc1`, the survivor count reads like this: under setting [1], 0 of 6; under setting [2], 0 of 6.

Turning to `C=CC(N)[Si](CC)(CC)CC` (stereo unspecified), the survivor count under setting [3] is on record as 0 of 6.

For the compound `CSC(=CC(=O)c1ccco1)SC`, the survivor count under setting [3] is reported as 2 of 6.

In the case of `Nc1nc(Br)nc2c1ncn2C1CC(O)C(CO)O1` (stereo unspecified), the T/C reads like this: (dose: 3.75 mg/kg/injection, schedule: Q03HX009 (ip), vehicle: saline) 134 % of control; (dose: 6.0 mg/kg/injection, schedule: Q01DX005 (ip), vehicle: suspension in saline) 127 % of control; (dose: 7.5 mg/kg/injection, schedule: Q03HX009 (ip), vehicle: saline with Tween-80) 141 % of control; (dose: 7.5 mg/kg/injection, schedule: Q03HX009 (ip), vehicle: saline) 136 and 149 % of control; (dose: 12.0 mg/kg/injection, schedule: Q01DX005 (ip), vehicle: suspension in saline) 127 % of control; (dose: 15.0 mg/kg/injection, schedule: Q01DX005 (ip), vehicle: saline + alcohol) 133 % of control. For the same compound, the T/C (dose: 15.0 mg/kg/injection, schedule: Q03HX009 (ip), vehicle: saline with Tween-80) is 141 % of control; the T/C (dose: 24.0 mg/kg/injection, schedule: Q01DX005 (ip), vehicle: suspension in saline) was 128 % of control; the T/C (dose: 30.0 mg/kg/injection, schedule: Q01DX005 (ip), vehicle: saline + alcohol) is 135 % of control; the T/C (dose: 30.0 mg/kg/injection, schedule: Q01DX005 (ip), vehicle: suspension in saline) is 125 % of control; the T/C (dose: 60.0 mg/kg/injection, schedule: Q01DX005 (ip), vehicle: saline + alcohol) was 135 % of control; the T/C (dose: 120.0 mg/kg/injection, schedule: Q01DX005 (ip), vehicle: saline + alcohol) is 134 % of control. Also, the survivor count is, setting by setting: (dose: 120.0 mg/kg/injection, schedule: Q03HX009 (ip), vehicle: saline) 1 of 6; (dose: 240.0 mg/kg/injection, schedule: Q01DX005 (ip), vehicle: saline + alcohol) 0 of 6; under setting [4], 2 of 6; (dose: 240.0 mg/kg/injection, schedule: Q03HX009 (ip), vehicle: saline) 0 of 6.

For the compound `CCN(CC)CCCC(C)NC(Cc1ccccc1)c1cccc2ccccc12` (stereo unspecified), for the setting “dose: 100.0 mg/kg/injection, schedule: Q01DX005 (ip), vehicle: suspension in saline”, the survivor count was 3 of 5.

On to `NNc1nncn1N`, for which the survivor count (dose: 400.0 mg/kg/injection, schedule: Q01DX009 (ip), vehicle: saline) was 0 of 6.

Take `C[N+]1=C(/C=C/Nc2ccc(Cl)cc2)C(C)(C)c2ccccc21`: the survivor count was 2 of 6 (dose: 50.0 mg/kg/injection, schedule: Q01DX009 (ip), vehicle: Klucel (hydroxypropylcellulose) (HPC)); 0 of 6 (dose: 100.0 mg/kg/injection, schedule: Q01DX009 (ip), vehicle: Klucel (hydroxypropylcellulose) (HPC)); 0 of 6 (dose: 200.0 mg/kg/injection, schedule: Q01DX009 (ip), vehicle: Klucel (hydroxypropylcellulose) (HPC)).

Regarding `O=C(Nc1cc(-c2ccccc2)nn1-c1ccccc1)c1ccc(Cl)cc1`, the survivor count (dose: 120.0 mg/kg/injection, schedule: Q01DX005 (ip), vehicle: saline with Tween-80) is 6 of 6.

Consider `NCCCn1ccc2c3ccccc3nc-2c1`, for which the survivor count (dose: 200.0 mg/kg/injection, schedule: Q01DX009 (ip), vehicle: water) is given as 3 of 6.

In the case of `CC1=C(C#N)C(=N)OC1(C)C1CC(=O)C=CC1=O` (stereo unspecified), the T/C reads like this: (dose: 120.0 mg/kg/injection, schedule: Q01DX005 (ip), vehicle: suspension in saline) 125 % of control; under setting [4], 126 % of control.

In the case of `C1=C(C2=C[P+](c3ccccc3)(c3ccccc3)C=C(c3ccccc3)O2)OC(c2ccccc2)=C[P+]1(c1ccccc1)c1ccccc1`, the survivor count under setting [5] was 0 of 5.

Take `C=C(Cl)C(=NC(C)(C)C)Nc1c(Cl)cccc1Cl`: the survivor count (dose: 100.0 mg/kg/injection, schedule: Q01DX005 (ip), vehicle: Klucel (hydroxypropylcellulose) (HPC)) is 3 of 5.

In the case of `O=C(O)c1ccc2nc(-c3ccccc3)cn2c1`, the survivor count was 5 of 6 (dose: 200.0 mg/kg/injection, schedule: Q04DX003 (ip), vehicle: saline with Tween-80) and 6 of 6 (dose: 400.0 mg/kg/injection, schedule: Q04DX003 (ip), vehicle: saline with Tween-80).

With `COc1ccc(CN2CC(C)N(N=Cc3c4c(O)c5c(O)c(C)c6c(c5c3O)C(=O)C(C)(O/C=C/C(OC)C(C)C(OC(C)=O)C(C)C(O)C(C)C(O)C(C)/C=C/C=C(\C)C(=O)N4)O6)C(C)C2)cc1` (stereo unspecified), the T/C under setting [6] is 138 % of control. Further, for the setting “dose: 400.0 mg/kg/injection, schedule: Q01DX009 (ip), vehicle: suspension in saline”, the survivor count was 6 of 6.

As to `CSCc1cc([N+](=O)[O-])ccc1N`, the survivor count (dose: 400.0 mg/kg/injection, schedule: Q01DX001 (ip), vehicle: saline with Tween-80) is reported as 0 of 6.

Regarding `CC1=C(C)C(=O)OC(C(C)(O)C2(O)CC=C3C4CC(O)C5(O)C(O)C=CC(=O)C5(C)C4CCC32C)C1` (stereo unspecified), for the setting “dose: 62.0 mg/kg/injection, schedule: Q01DX005 (ip), vehicle: Klucel (hydroxypropylcellulose) (HPC)”, the T/C is 125 % of control.

For `N#C/C(=N\NC(=O)c1ccccc1)c1ccccc1`, the survivor count under setting [1] is 6 of 6 and the survivor count under setting [2] was 6 of 6.

Regarding `C=C(c1ccccc1)C1(O)CCCCC1N(C)C` (stereo unspecified), the survivor count (dose: 100.0 mg/kg/injection, schedule: Q04DX002 (ip), vehicle: saline with Tween-80) is 0 of 6; the survivor count (dose: 200.0 mg/kg/injection, schedule: Q04DX002 (ip), vehicle: saline with Tween-80) was 0 of 6; the survivor count (dose: 400.0 mg/kg/injection, schedule: Q04DX002 (ip), vehicle: saline with Tween-80) is on record as 0 of 6.

For the compound `COC(=O)c1nc(=S)[nH]c(C(=O)OC)c1C(=O)/C=C/c1ccccc1`, under “dose: 240.0 mg/kg/injection, schedule: Q01DX005 (ip), vehicle: saline + Tween-80 + alcohol”, the survivor count is given as 2 of 6.

Turning to `COc1ccc2[nH]c3c(c2c1)C(c1ccccc1)c1ccccc1-3` (stereo unspecified), the survivor count reads like this: under setting [1], 5 of 5; under setting [2], 5 of 5.

In the case of `OC1CCC(C2C3CCCCC3C3CCCCC3C2C2CCC(O)CC2)CC1` (stereo unspecified), under setting [2], the survivor count is reported as 4 of 5.

As to `CCCCCCC(=O)/C=C/c1ccccc1OC(=O)/C=C/c1ccccc1`, under “dose: 200.0 mg/kg/injection, schedule: Q01DX005 (ip), vehicle: saline + alcohol”, the survivor count is recorded as 6 of 6.

As for `COc1cc(/C=C/c2ccc3ccccc3n2)cc(OC)c1OC`, the survivor count (dose: 400.0 mg/kg/injection, schedule: Q01DX009 (ip), vehicle: saline with Tween-80) is reported as 6 of 6.

Consider `CN(C)CCC(=O)/C=C/c1ccc(Cl)c(Cl)c1`, for which the survivor count reads like this: (dose: 100.0 mg/kg/injection, schedule: Q01DX009 (ip), vehicle: saline with Tween-80) 4 of 6; under setting [6], 0 of 6.

For `O=C(Nc1cccc2ccccc12)ON1C(=O)c2ccccc2C1=O`, the survivor count reads like this: under setting [1], 5 of 6; under setting [2], 1 of 5, 3 of 6, 3 of 5; (dose: 400.0 mg/kg/injection, schedule: Q01DX005 (ip), vehicle: saline with Tween-80) 0 of 5 (2×) and 0 of 6.

Regarding `COc1cc(Br)c(CC(NC(=O)c2ccccc2)c2ccc(OC)c(OC)c2OC)cc1OC` (stereo unspecified), the survivor count is listed as 6 of 6 under setting [5] and 6 of 6 under setting [1].

Values taken from PubChem BioAssay AID330 (DTP/NCI, 2004).
